Results published in patent publication US8846907B2, “Spiro-condensed indoline derivatives as pesticides” (priority 2003, dated 2014).
Some of these results come from one statement about several compounds together.

Assays:
Type in all cases: in vivo
Spodoptera littoralis = Spodoptera littoralis (Egyptian cotton leafworm) cotton leaf disc test; details: 200 ppm sprayed on cotton leaf discs, L1 larvae, mortality, repellent effect, feeding behaviour, growth regulation 3 DAT
Plutella xylostella = Plutella xylostella (diamond back moth) larval test on artificial diet; details: 18.2 ppm by pipetting on artificial diet, L2 larvae, larval mortality, antifeedant, growth regulation after 5 days
Heliothis virescens = Heliothis virescens (tobacco budworm) egg/larva test on artificial diet; details: 200 ppm by pipetting, eggs 0-24 h old on artificial diet, egg mortality, larval mortality, growth regulation after 4 days
Aedes aegypti = Aedes aegypti (yellow fever mosquito) larval test; details: 2 ppm, L2 larvae in 96-well plates, mortality and growth inhibition after 2 days

O=C(c1ccnc(Cl)c1)N1CC2(CCCN(C/C=C/c3ccc(Cl)cc3)CC2)c2cc(Cl)ccc21 (stereo not drawn) [CXXXIX-49, 5-chloro-1-(2-chloropyridin-4-yl)carbonyl-1′-[trans-3-(4-chlorophenyl)allyl]spiro[perhydro-azepine-3,3′-piperidine]]
at least 80%: control of Spodoptera littoralis (Spodoptera littoralis) | control of Plutella xylostella (Plutella xylostella) | control of Heliothis virescens (Heliothis virescens)

O=C(c1ccnc(Cl)c1)N1CC2(CCN(C/C=C/c3ccc(Cl)cc3)C2)c2cc(Cl)ccc21 (stereo not drawn) [III-49, 5-Chloro-1-(2-chloropyridin-4-yl)carbonyl-1′-[trans-3-(4-chlorophenyl)allyl]spiro[indoline-3,3′-pyrrolidine]]
at least 80%: control of Spodoptera littoralis (Spodoptera littoralis) | control of Plutella xylostella (Plutella xylostella) | control of Heliothis virescens (Heliothis virescens) | control of Aedes aegypti (Aedes aegypti)
